# Data: PubChem BioAssay AID493014 (National Center for Advancing Translational Sciences (NCATS), 2011)
# The list shows a part of the results. Shown are side measurements of this screen, not its main read-out; they come without a call. The list favours compounds with an active or inconclusive main result. Potencies come from curve fits of mixed quality, noted in brackets.
# Experiment: qHTS Assay to Find Inhibitors of Chronic Active B-Cell Receptor Signaling
# Details: ABC-DLBCL IkBa-CBG/CBR reporter, luminescence ratio (green luciferase fused to IkBa over red control in TMD8 lymphoma cells), 4 h; measured here: CBR red luminescence, cell number
# Method in brief: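 Cell line TMD8 (human ABC DLBCL), stably expressing tet-inducible CBG68-IkBa fusion and CBR; IMDM/0.5% FBS; cpd up to 46 uM; dox induction, 4 h, 37C/5% CO2; dual luminescence; green/red ratio; MG132 control.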
row,SMILES,AC50
1,CCCC(=O)NC(c1ccccc1)c1c(O)ccc2ccccc12 (stereo not drawn),"35.5 µM [falling, single point]"
2,COc1ccc(NC(=O)c2cccc(N3C(=O)C4CCC(C)CC4C3=O)c2)c(OC)c1 (stereo not drawn),"2.82 µM [falling, full curve]"
3,O=C(CC1Oc2ccccc2NC1=O)NCCCN1CCN(Cc2ccccc2)CC1 (stereo not drawn),"29.1 µM [falling, single point]"
4,OCCNc1ncnc2ccc(Br)cc12,"12.6 µM [falling, partial curve, poor fit]"
5,COc1ccc(-c2cc(C(F)(F)F)nc(S(=O)(=O)CCCC(=O)Nc3cccnc3Cl)n2)cc1OC,"17.8 µM [falling, partial curve]"
6,Cc1sc2nc(CN3CCOCC3)nc(N3CCC(C(N)=O)CC3)c2c1C,"17.8 µM [rising, partial curve, poor fit]"
7,Cc1ccc(NC(=O)/C=C/c2ccc3c(c2)OCO3)nc1,"1.3 µM [falling, partial curve, poor fit]"
8,O=c1[nH]c(C2CCN(S(=O)(=O)c3ccc(S(=O)(=O)NC4CC4)cc3)CC2)nc2c1nnn2Cc1cccc(F)c1,"35.5 µM [falling, single point]"
9,Cc1cccc(NC(=O)c2ccccc2NC(=O)c2ccco2)c1,"1.26 µM [falling, full curve, poor fit]"
10,C(=N\Nc1ccc2ccccc2n1)/c1ccc2c(c1)OCO2,"5.01 µM [falling, partial curve]"
11,N/C(=N\OC(=O)Cc1ccc(Cl)cc1)c1ccncc1,"2.24 µM [rising, partial curve, poor fit]"
12,O=C1C=C(c2ccccc2)OC2(CCCC2)O1,"29.1 µM [rising, single point]"
13,O=P(COCCCCCOCP(=O)(c1ccccc1)c1ccccc1)(c1ccccc1)c1ccccc1,"3.55 µM [falling, full curve]"
14,Cc1c(-c2nc(-c3ccc(C(F)(F)F)cc3)no2)n(C)oc1=O,"0.631 µM [rising, full curve, poor fit]"
15,Cc1cc(NC(=O)CSc2nnc(-c3cccc(Cl)c3)o2)no1,"17.8 µM [rising, single point]"
16,O=C(/C=C/c1ccc(OC(F)F)cc1)Nc1cccc(S(=O)(=O)N2CCOCC2)c1,"17.8 µM [falling, partial curve]"
17,COC(=O)C1=C(C)N(Cc2ccccc2)C(=O)N[C@H]1c1cccs1,"35.5 µM [falling, single point]"
18,Cc1sc2ncn(CC(=O)Nc3cccc(S(N)(=O)=O)c3)c(=O)c2c1-c1ccccc1,"35.5 µM [falling, single point]"

# 3 compounds out of the list, sorted by SMILES length, low to high.
row,SMILES,AC50
4,OCCNc1ncnc2ccc(Br)cc12,"12.6 µM [falling, partial curve, poor fit]"
1,CCCC(=O)NC(c1ccccc1)c1c(O)ccc2ccccc12 (stereo not drawn),"35.5 µM [falling, single point]"
15,Cc1cc(NC(=O)CSc2nnc(-c3cccc(Cl)c3)o2)no1,"17.8 µM [rising, single point]"
